Values quoted from earlier work, collected in patent US20130072534A1 (LABORATORIOS DEL DR. ESTEVE, S.A., priority 2009, published 2013).

Details: cited from earlier work

Cc1ccc(-c2cc(C(F)(F)F)nn2-c2ccc(S(N)(=O)=O)cc2)cc1 [celecoxib, 4-[5-(4-methylphenyl)-3-(trifluoromethyl)pyrazol-1-yl]benzenesulfonamide]
solubility in water (in words): only slightly soluble in water
